According to PubChem BioAssay AID493014 (National Center for Advancing Translational Sciences (NCATS), 2011):
The other results are listed elsewhere or left out. These are further read-outs of the screen, such as a control signal, another cell line or another target. No call is given for them. The list favours compounds with an active or inconclusive main result. Potencies come from curve fits of mixed quality, noted in brackets.

Assay: qHTS Assay to Find Inhibitors of Chronic Active B-Cell Receptor Signaling
Conditions: ABC-DLBCL IkBa-CBG/CBR reporter, luminescence ratio (green luciferase fused to IkBa over red control in TMD8 lymphoma cells), 4 h
Summary of the method: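 Concentration-response series (up to 46 uM) were applied to TMD8 dual-reporter cells for 4 h at 37C with doxycycline. Green/red ratio, after filter-overlap correction, defined %Activity; red signal alone was normalised to basal cells and zero luminescence.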

[1] = measured here: CBR red luminescence, cell number
[2] = measured here: IkBa-CBG green luminescence

| SMILES | AC50 [1] | AC50 [2] |
| --- | --- | --- |
| COc1c(Br)cc([N+](=O)[O-])c(OC)c1C(=O)NC(=O)Nc1cc(Cl)cc(Cl)c1 | 14.1 µM [falling, single point] | – |
| CCC(C)NC(=O)COc1ccc(Br)c(C)c1 (centres undefined) | 32.6 µM [falling, single point] | – |
| O=C(COC(=O)c1cnccn1)c1ccccc1 | 0.00517 µM [falling, full curve, poor fit] | – |
| Cc1cccc(C(=O)Nc2cccc(S(=O)(=O)NCc3ccco3)c2)c1 | 0.366 µM [rising, full curve] | – |
| O=C(Nc1nc2ccccc2[nH]1)c1cccc(S(=O)(=O)N2CCOCC2)c1 | 2.91 µM [falling, single point] | – |
| CC1(C)CC(/C=C/c2ccccc2)=Nc2ccccc2N1 | 35.5 µM [falling, single point] | – |
| COc1ccccc1-c1noc(CSc2nc(N)cc(=O)[nH]2)n1 | 20 µM [rising, partial curve] | 20 µM [falling, partial curve] |
| CN(C)S(=O)(=O)c1cccc(NC(=S)NCc2ccc3c(c2)OCO3)c1 | 35.5 µM [falling, single point] | – |
| Cc1cccn2c(=O)c(C(=O)NCCc3ccccc3)cnc12 | 14.1 µM [falling, partial curve] | – |
| O=C(CCn1nnc(-c2cccs2)n1)N1CCc2ccccc2C1 | 29.1 µM [rising, single point] | – |
| Cc1c(Br)c([N+](=O)[O-])nn1C(C)C(=O)N1CCc2ccccc2C1 (centres undefined) | 8.91 µM [rising, partial curve, poor fit] | – |
| C#CCNC(=O)C1=C[C@@H](c2coc3ccccc3c2=O)[C@H](CCCO)[C@@H](OCC)O1 | 2.82 µM [rising, single point] | – |
| COc1cccc(CC(=O)N2CCCC(CCC(=O)N3CCN(c4ccccn4)CC3)C2)c1 (centres undefined) | 35.5 µM [falling, single point] | – |
| Cc1cccc(CN2C[C@]34CC[C@@H](C[C@@H]3S2(=O)=O)O4)c1 | 1.58 µM [rising, full curve, poor fit] | – |
| Cc1ccc(S(=O)(=O)/N=C2\C=C(Nc3ccc(O)cc3)C(=O)c3ccccc32)cc1 | 1.84 µM [falling, partial curve] | – |
| CCOC(=O)C1CCCN(C(=O)c2sc3nc4n(c(=O)c3c2C)CCC4)C1 (centres undefined) | 4.11 µM [rising, single point] | – |
| O=C(NCCN1C(=O)S/C(=C\c2ccc(Cl)c(Cl)c2)C1=O)c1ccc2c(c1)C(=O)N(Cc1ccncc1)C2=O | 32.6 µM [rising, partial curve, poor fit] | – |
| CC(=O)Nc1ccc(SCCN2CC[C@@H](C)CCC2=O)cc1 | 29.1 µM [rising, single point] | – |
| O=C1OCc2cc(NC(=O)C3COc4ccccc4O3)ccc21 (centres undefined) | 16.4 µM [rising, partial curve, poor fit] | – |
| Cc1ccc(SCC(=O)OC(C)C(=O)NCc2ccccc2)cc1C (centres undefined) | 0.103 µM [rising, full curve, poor fit] | – |
| COCc1cc(C)nc(SCc2ccc(F)cc2)c1C#N | 10 µM [rising, partial curve] | – |
| C(=C\c1nc(-c2ccccc2)no1)/c1ccccc1 | 1.64 µM [falling, partial curve, poor fit] | – |

| SMILES | AC50 [1] | AC50 [2] |
| --- | --- | --- |
| O=C(NNC(=O)c1cc([N+](=O)[O-])ccc1Cl)c1cccs1 | 16.4 µM [falling, partial curve] | – |
| COc1ccccc1CNC(=O)c1ccc(-c2ccccc2Cl)o1 | 5.17 µM [falling, partial curve, poor fit] | – |
| CC(NC(=O)CSc1cccc(C(F)(F)F)c1)c1ccccc1 (centres undefined) | 0.651 µM [rising, full curve] | – |
| O=C(c1ccc(Br)cc1)C(CN1CCOCC1)c1ccccc1 (centres undefined) | 12.6 µM [falling, partial curve, poor fit] | – |
| CCOc1ccccc1NC(=O)/C=C/C(N)=O | 9.2 µM [falling, partial curve] | 14.6 µM [rising, partial curve, poor fit] |
| Cc1ccccc1CC1S/C(=N/N=C/c2ccco2)NC1=O (centres undefined) | 8.91 µM [rising, partial curve, poor fit] | – |
| CSc1ncccc1C(=O)OCC(=O)N(C)c1c(N)n(Cc2ccccc2)c(=O)[nH]c1=O | 29.1 µM [rising, single point] | – |
| COc1ccccc1C(=O)Nc1ccc2c(c1)n(C)c(=O)n2C | 1.58 µM [rising, partial curve] | 12.6 µM [falling, partial curve, poor fit] |
| CC(C)(C)C(=O)/C=C(N)/C=C/c1ccccc1 | 15.8 µM [rising, partial curve, poor fit] | – |
| Cc1cccc(NC(=O)c2cccc3c2C(=O)c2ccccc2-3)c1 | 0.1 µM [rising, full curve, poor fit] | – |
| C[C@@H](NC(=O)OC(C)(C)C)c1nnc(S(=O)(=O)Cc2ccccc2)o1 | 8.91 µM [falling, partial curve, poor fit] | 10 µM [rising, partial curve, poor fit] |
| O=C(CCc1ccccc1)Nc1c(F)c(F)c(F)c(F)c1F | 20 µM [rising, single point] | – |
| Cc1ccc(SCCNC(=O)/C=C/c2ccccc2Cl)cc1 | 35.5 µM [falling, single point] | – |
| Cc1cccc2cc(C#N)c(NCCCn3ccnc3)nc12 | 14.1 µM [rising, partial curve, poor fit] | – |
| CN(CCCNC(=O)CCCOc1cc(=O)n(C)c2ccccc12)Cc1ccccc1 | – | 14.1 µM [falling, partial curve, poor fit] |
| Cc1cccc(C(=O)N2CCC(=O)N(C(COCc3cccc(Cl)c3)Cc3ccccc3)CC2)c1 (centres undefined) | 18.4 µM [falling, partial curve, poor fit] | – |
| Cc1ccc(NC(=O)C2CCCCC2C(=O)O)cc1Cl (centres undefined) | 15.8 µM [rising, partial curve, poor fit] | – |
| C=CCc1c(C)nc(-c2ccccc2)nc1N/N=C/c1ccccc1 | 18.4 µM [falling, partial curve] | – |
| Cc1ccc(NC(=O)c2ncn[nH]2)cc1 | 7.94 µM [falling, partial curve, poor fit] | – |
| O=C(COc1cccc2c1CCNC2=O)Nc1ccc(F)cc1 | 2.31 µM [falling, partial curve, poor fit] | – |
| COCCCNC(=O)c1c(N)n(-c2ccccc2)c2nc3ccccc3nc12 | 8.91 µM [falling, partial curve, poor fit] | – |
| CCc1ccc2[nH]c(=O)c(CN(CCN3CCCC3)C(=O)NC3CCCCC3)cc2c1 | 35.5 µM [falling, single point] | – |

| SMILES | AC50 [1] | AC50 [2] |
| --- | --- | --- |
| CCc1nnc(N/N=C/c2ccccc2Cl)n1N | 35.5 µM [falling, single point] | – |
| Cc1ccc(-c2nnn(CC(=O)N(CC(=O)NC(C)C)c3cnc4ccccc4c3)n2)o1 | 0.00461 µM [rising, full curve, poor fit] | – |
| CC1CCCC(N2CCN(C(=O)c3ccccc3F)CC2)C1 (centres undefined) | 15.8 µM [rising, partial curve, poor fit] | – |
| Nc1ccc(-c2nc3ccc(N)cc3[nH]2)cc1 | 17.8 µM [falling, single point] | – |
| COC(=O)c1ccc(NC(=O)c2ccc(N(C)S(C)(=O)=O)cc2)cc1 | 6.51 µM [falling, single point] | – |
| CC(=O)OC12CC3CC(C1)C(=NO)C(C3)C2 | 4.61 µM [rising, full curve, poor fit] | – |
| c1ccc(OCc2nc3ccccc3s2)cc1 | 14.6 µM [falling, single point] | – |
| COc1cc(C(=O)N/N=C/c2ccsc2C)cc(OC)c1OC | 6.31 µM [rising, full curve] | 8.91 µM [falling, partial curve] |
| Cn1nc(-c2ccccc2)cc1NS(=O)(=O)c1ccccc1 | 10 µM [rising, partial curve, poor fit] | – |
| C/C(=N/N=C/c1ccccc1O)c1ccccc1O | 0.501 µM [rising, partial curve, poor fit] | – |
| Cc1nc(-c2ccc(NC(=O)C3CCCCC3)cc2)cs1 | 18.4 µM [falling, partial curve] | – |
| CC(=O)Nc1ccc(NC(=O)c2cccc(Oc3ccccc3)c2)cc1 | 2.24 µM [falling, full curve] | – |
| O=C(Nc1ccccc1F)c1ccc(CSc2ncccn2)cc1 | 35.5 µM [falling, single point] | – |
| CCOC(=O)N1CCN(C(=O)c2ccc([N+](=O)[O-])cc2Cl)CC1 | 22.4 µM [rising, single point] | – |
| N=C1/C(=C\c2coc3ccccc3c2=O)C(=O)N=C2SC=CN12 | 6.31 µM [falling, full curve] | – |
| Cc1cc2[nH]c(=O)c(=O)[nH]c2cc1S(=O)(=O)Nc1cccc(F)c1 | 11.2 µM [rising, partial curve, poor fit] | – |
| CCCN(CCC)C(=S)NC(=O)c1ccc(-c2ccccc2)cc1 | 16.4 µM [falling, single point] | – |
| COC(=O)C1=C(C)NC(C)=C(C(=O)OC)C1c1ccco1 | 0.562 µM [rising, full curve, poor fit] | – |
| CCCCC(=O)N/N=C(\C)CC(=O)Nc1cc(Cl)ccc1OC | 35.5 µM [falling, single point] | – |
| Oc1ccc(C2=NNC(=NCc3ccc4c(c3)OCO4)SC2)c(O)c1 | 4.11 µM [falling, full curve] | – |

Single records, from the list above. Values in the order: AC50 [1] | AC50 [2]
CC1CCCC(N2CCN(C(=O)c3ccccc3F)CC2)C1 (centres undefined) is listed with 15.8 µM [rising, partial curve, poor fit] | –
CCCN(CCC)C(=S)NC(=O)c1ccc(-c2ccccc2)cc1 is listed with 16.4 µM [falling, single point] | –
